Some of these results come from one statement about several compounds together.
Test system: panel of drug resistant HIV-1 viruses
Assay: p24 reduction assay, panel of drug resistant HIV-1 viruses (summary)
Type: cell-based
Details: Table 1, read-out: EC50 values generally

## CCCCCCCCCCCCCCCCCCOC[C@H](COP(=O)(O)C(=O)O)OCC [EB-PFA, 1-O-octadecyl-2-O-ethyl-sn-glycero-3-PFA]
  EC50: < 1000 nM
